Measurements as given in paper PMC6730887, “FKBP51 and FKBP12.6—Novel and tight interactors of Glomulin” (PLoS ONE, 2019).
Substitutions are numbered along the chain they refer to. In names and notes the source's numbering stands. Results are given in words; binding and its absence hold for the method and conditions named. Some entries that bind do so weakly or less than the wild type. Where a sequence is shown, tags or fusion partners need not be part of it.

Columns and labels:
[1] = target: T1, GST-Glmn (Glomulin) (UniProt Q92990); assay: AlphaScreen or HTRF; competitive HTRF: unlabelled FKBP titrated against 30 nM FKBP51FK1-5-MF and 30 nM GST-Glmn with Anti GST-Tb cryptate; 20 mM HEPES, 5% glycerol, 20 mM NaCl, 10 mM DTT, pH 8.0; room temperature, 1 h; both purified
T1 sequence: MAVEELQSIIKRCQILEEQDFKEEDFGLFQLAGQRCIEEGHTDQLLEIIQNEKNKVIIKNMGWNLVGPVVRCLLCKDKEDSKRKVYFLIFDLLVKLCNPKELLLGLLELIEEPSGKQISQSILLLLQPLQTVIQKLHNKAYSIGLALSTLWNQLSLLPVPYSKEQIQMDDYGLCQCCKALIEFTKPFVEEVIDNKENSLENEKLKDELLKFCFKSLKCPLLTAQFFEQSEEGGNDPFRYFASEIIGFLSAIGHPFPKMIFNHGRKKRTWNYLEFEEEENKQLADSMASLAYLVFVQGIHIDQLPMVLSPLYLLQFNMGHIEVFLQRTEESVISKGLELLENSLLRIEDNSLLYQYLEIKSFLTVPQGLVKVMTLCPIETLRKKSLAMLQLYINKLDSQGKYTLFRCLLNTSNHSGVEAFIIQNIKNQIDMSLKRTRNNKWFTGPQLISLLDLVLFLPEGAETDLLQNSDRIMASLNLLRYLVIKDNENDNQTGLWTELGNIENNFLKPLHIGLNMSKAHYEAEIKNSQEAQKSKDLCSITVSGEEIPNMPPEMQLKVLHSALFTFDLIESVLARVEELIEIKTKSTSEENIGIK

[2] = target: His-FKBP12-MonoCys (C23V / E108C) labelled with Fluorescein-5-Maleimide (UniProt P62942); assay: AlphaScreen or HTRF; direct HTRF: GST-Glmn titrated to 30 nM Fluorescein-labelled FKBP in the presence of 0.8 nM Anti GST-Tb cryptate; Ex 485 nm, Em 520 / 620 nm; both purified
[3] = target: T2, His-FKBP51FK1-MonoCys (aa1-140, C103A, C107I, E140C) labelled with Fluorescein-5-Maleimide (UniProt Q13451); assay: as above
T2 sequence (chain, Fluorescein-5-Maleimide on the single C-terminal cysteine (E140C)): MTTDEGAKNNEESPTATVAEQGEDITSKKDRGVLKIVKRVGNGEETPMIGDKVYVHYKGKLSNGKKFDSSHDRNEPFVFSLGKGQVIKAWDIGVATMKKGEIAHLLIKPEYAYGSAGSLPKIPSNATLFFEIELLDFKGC

[4] = target: T2, His-FKBP51FK1-MonoCys (aa1-140, C103A, C107I, E140C) labelled with Fluorescein-5-Maleimide; assay: AlphaScreen or HTRF; competitive HTRF: unlabelled FKBP titrated against 30 nM FKBP51FK1-5-MF and 30 nM GST-Glmn with Anti GST-Tb cryptate; 20 mM HEPES, 5% glycerol, 20 mM NaCl, 10 mM DTT, pH 8.0; room temperature, 1 h; both purified

B1: His-FKBP51FK1 (F67V) (domain or fragment)
chain: T2 sequence (chain, Fluorescein-5-Maleimide on the single C-terminal cysteine (E140C)) with F67V, A103C, I107C, C140E
**Q.** How did the binding [1] turn out when B1 was run?
**A.** binds

B2: GST-Glmn (Glomulin) (protein, UniProt Q92990 1-594)
chain: T1 sequence
**Q.** What does the source list for B2?
**A.** binding [2]: no binding; binding [3]: binds; binding [4]: binds
